Some of the results follow.

Amino acid sequences for entries named in this document (tags omitted).
UniProt Q0JBA9, entry or part of it: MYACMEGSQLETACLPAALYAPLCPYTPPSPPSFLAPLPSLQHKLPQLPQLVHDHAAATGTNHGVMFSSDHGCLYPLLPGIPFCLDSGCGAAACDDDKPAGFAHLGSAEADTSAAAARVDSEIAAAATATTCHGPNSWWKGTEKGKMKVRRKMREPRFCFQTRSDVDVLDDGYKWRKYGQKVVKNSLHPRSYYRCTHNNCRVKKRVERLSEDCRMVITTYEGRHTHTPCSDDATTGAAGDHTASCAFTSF

The target of this assay is OsWRKY34 (Oryza sativa, UniProt Q0JBA9 1-250). As to the kind of experiment: protein-binding microarray (RPBM); PBS, 2% BSA, 51.3 ng/ul salmon testes DNA, 50 uM zinc acetate, 200 nM TF, 25 C, 1 h; high values mean tight binding. The note with it: protein: recombinant; tags: N-terminal polyhistidine and DsRed monomer fusion (pET32a); label: CyDye5-dUTP incorporated in the synthesized complementary strand; 3' TTTTT single-stranded linker to array surface; dsDNA, one strand shown. A digest of the protocol:
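A custom Agilent array was converted to double-stranded form by primer extension with Cy5-dUTP and blocked with 2% BSA. Protein at 200 nM in PBS with 2% BSA, salmon testes DNA and 50 µM zinc acetate was applied for 1 h at 25 °C, followed by washing. The proteins were polyhistidine–DsRed N-terminal fusions of transcription factors, expressed in E. coli BL21-CodonPlus and Ni–NTA-purified. The binding signal is per-feature fluorescence intensity (arbitrary units) from an Axon 4000B scanner.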
As to “CGCACTTTTCCGCCATTTGTCCGACTCCACCCGCGGCTTACGGAGTCACCTAGTGCAG”, the binding signal is 14200 fluorescence intensity (a.u.). Take “GCTCTGGTTTCCTCCGTCGCATCGCAAATTCGCAATATCGCGGAGTCACCTAGTGCAG”: the binding signal was 9040 fluorescence intensity (a.u.). Regarding “TTCTATGCGTAACTTTTTTTAAAACTTTCACTGCAGTTACCGGAGTCACCTAGTGCAG”, the binding signal was 11200 fluorescence intensity (a.u.). With “TGTTTATAGTTGGCTTATAGCCGCTATTGTACCTGTTCTTCGGAGTCACCTAGTGCAG”, the binding signal is 8310 fluorescence intensity (a.u.). With “CCATATACTCTCTCCATCCTTAAATGTTTAACGTTGTTGACGGAGTCACCTAGTGCAG”, the binding signal is 8670 fluorescence intensity (a.u.). The figure for “GAGTCACGCGTAGCAACCGGTCGTATTTGCTATCTCACATCGGAGTCACCTAGTGCAG” is 11700 fluorescence intensity (a.u.); for “ATAGCTTATCATCAGTATACTTTGCCACTTTGAGTAGTTTCGGAGTCACCTAGTGCAG” it is 8500 fluorescence intensity (a.u.). For the sequence “CTGCAATTCCTTTCCTAGTAATTAATCATCAAACATATATCGGAGTCACCTAGTGCAG”, the binding signal was 8270 fluorescence intensity (a.u.). Regarding “ATCCATCCACCCATCTCATCTTTTGTCTCTTTCTGCTGCTCGGAGTCACCTAGTGCAG”, the binding signal is 12200 fluorescence intensity (a.u.). In the case of “GCCCTGAGTGAACTTTTGCCATCGTTCCTCGGATATCTTACGGAGTCACCTAGTGCAG”, the binding signal is 9740 fluorescence intensity (a.u.). The figure for “CGGTGGGGAGGCCGGGAGGGAGGAGGAGAGAAGAGGAGTGCGGAGTCACCTAGTGCAG” is 9450 fluorescence intensity (a.u.); for “GTGCTAATAGTTTTCTTTCCTAACTAATTTCATCCTTATTCGGAGTCACCTAGTGCAG” it is 8580 fluorescence intensity (a.u.). Turning to “GAATTCTAGGGTTTTGCAATTTGTTGGGCTTATTGGGCCTCGGAGTCACCTAGTGCAG”, the binding signal is 12500 fluorescence intensity (a.u.).

Consider “GTTTGGTTGGCTGTTCTGCTTGAAATCTTTCAGAATTTTTCGGAGTCACCTAGTGCAG”, for which the binding signal is 8110 fluorescence intensity (a.u.). In the case of “TTTTATATTCACAGGTGGCCGGCTCTCTTCTGCACACAACCGGAGTCACCTAGTGCAG”, the binding signal was 9380 fluorescence intensity (a.u.).

For the sequence “TTGATTTTTTGTTGCAAAAGAATATTTTAATTCACTGCAACGGAGTCACCTAGTGCAG”, the binding signal is 24300 fluorescence intensity (a.u.). Regarding “GTGACCAACCATTCTTTCATCGCACCTCTACGAAATTCATCGGAGTCACCTAGTGCAG”, the binding signal is 11900 fluorescence intensity (a.u.). “TCTTGCTTTTACCTTTTTTTTTTTTTTTGGCTTCATTCCTCGGAGTCACCTAGTGCAG”: the binding signal was 8570 fluorescence intensity (a.u.). For “CCCACACGCGCTCCATGCATCTCCACCACGCTCCATGTGTCGGAGTCACCTAGTGCAG”, the binding signal is 11000 fluorescence intensity (a.u.).

Turning to “AGTCCCTTTTACACTTGATCTGTTGAACTTTCATTGTGCTCGGAGTCACCTAGTGCAG”, the binding signal is 9690 fluorescence intensity (a.u.).

Take “AATTCTCCATTTTATGTACTTTTTCACAGGGATTTTTTTTCGGAGTCACCTAGTGCAG”: the binding signal was 11500 fluorescence intensity (a.u.).

As to “TTACCACACTCAACCTTTACTCCGGATCGGATTGCCTCTCCGGAGTCACCTAGTGCAG”, the binding signal was 9160 fluorescence intensity (a.u.). Take “ACGGATCATGTATACTACTACCATGATGATGAGTCATTTTCGGAGTCACCTAGTGCAG”: the binding signal is 8180 fluorescence intensity (a.u.). The figure for “TCATTCCTATCTTTTAAGTCGTGTTTCTCTATCGTCAATTCGGAGTCACCTAGTGCAG” is 9960 fluorescence intensity (a.u.). For the sequence “CTATCATGTTATTGTGTTCTTGCTGCTATTATTTTGACCTCGGAGTCACCTAGTGCAG”, the binding signal is 9220 fluorescence intensity (a.u.). For the sequence “AAGTATCCATCCTTTTTATAGTCTTTGTATTCTGTAATTTCGGAGTCACCTAGTGCAG”, the binding signal was 10600 fluorescence intensity (a.u.).

With “CAGCTCCATCTGCCACCATCCTCTGCATTCCACCGCCGCCCGGAGTCACCTAGTGCAG”, the binding signal is 8990 fluorescence intensity (a.u.).

“ACCAAACAATTTCTTCCTTTCATTACTGTTTGCGGTTTCACGGAGTCACCTAGTGCAG”: the binding signal was 10900 fluorescence intensity (a.u.).

As to “GGTGGTTTTGGATGATAGTTTTGCATATTTTGGAAGCTTACGGAGTCACCTAGTGCAG”, the binding signal was 9620 fluorescence intensity (a.u.). For “GCCGCCGCCGCCTCCGCCTCCTCTTTGTTTCTCCTCTTAGCGGAGTCACCTAGTGCAG”, the binding signal was 9080 fluorescence intensity (a.u.). Take “AATGAGTTGTGGATGATTTTGTTGTTGGTTTTGTTCATTTCGGAGTCACCTAGTGCAG”: the binding signal is 8140 fluorescence intensity (a.u.). For the sequence “TAGGAAGGAGGTGGTACGTCTCTTGTTTTTGCTTGTTTTTCGGAGTCACCTAGTGCAG”, the binding signal is 8910 fluorescence intensity (a.u.). The figure for “AACCGTCGACACGCGCGCGACCATTCGATCACTCCACGACCGGAGTCACCTAGTGCAG” is 9410 fluorescence intensity (a.u.). On to “ACTTCCAACTTTTTTATCACATCGTTTCAATTTCAACCAACGGAGTCACCTAGTGCAG”, for which the binding signal is 9030 fluorescence intensity (a.u.). The figure for “CCCCTAAACAGCATACTAGTACTACATCCGTCCCAAAATACGGAGTCACCTAGTGCAG” is 8280 fluorescence intensity (a.u.); for “TTTGGTATGTCAGGGCTTGTTTGGTTCAATACCCTATCAACGGAGTCACCTAGTGCAG” it is 10000 fluorescence intensity (a.u.); for “TACACTCACCACTATAAACACACGCACAAACACATATTAACGGAGTCACCTAGTGCAG” it is 8490 fluorescence intensity (a.u.). In the case of “TCTGCTCATTAGCTCGAGACCTGGTCAGCTCGCCGCCATGCGGAGTCACCTAGTGCAG”, the binding signal is 8150 fluorescence intensity (a.u.). With “ATCACGGGATTACACAGCAAAGTAGCAAAGCTAAATTTTACGGAGTCACCTAGTGCAG”, the binding signal was 63700 fluorescence intensity (a.u.). In the case of “CTCTTCTTCTTCTTCTTCTAGGGGCTGTTTGGTTTCCAGGCGGAGTCACCTAGTGCAG”, the binding signal was 8540 fluorescence intensity (a.u.). “ACGATGGCCTAAGTCAGTATTTTGACTATTTTTAAATAAACGGAGTCACCTAGTGCAG”: the binding signal was 8330 fluorescence intensity (a.u.).

With “TCGCAACACCAGATACCCCTCTTCGCTCTTGGATTTCTTTCGGAGTCACCTAGTGCAG”, the binding signal is 9310 fluorescence intensity (a.u.).

The record behind these values is PMC7819943, “Rice protein-binding microarrays: a tool to detect cis-acting elements near promoter regions in rice”.
